PubChem BioAssay AID652259, Drosophila RNAi Screening Center, 2013

Purpose: 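Knock-downs that push a Wingless-driven reporter up or down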 (primary screen)
Cells: Drosophila clone 8 imaginal disc epithelial cells
Reagents: long dsRNA against Drosophila genes
Conditions: pathway stimulated by co-transfected Wingless expression plasmid
Read-out: 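Dual luciferase reads per well after Wingless plasmid stimulation: reporter firefly light and Renilla control light; activity is firefly divided by Renilla, a ratio not deposited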
Reading the numbers: firefly reporter light: higher = more Wg reporter light, before normalisation; Renilla control light: higher = more transfected or surviving cells
Call rule: 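a knock-down is a candidate when at least two out of four statistical tests show it departing from its plate mean; one test alone signals a weak candidate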
Calls: active = candidate regulator (raises or lowers reporter); inactive = not a candidate
The deposit covers about 22,000 reagents; shown is a random part of those with a known target gene and a result. In the full data, 233 (1.1%) are marked active. 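Light values are raw, unnormalised plate reads; the ratio scores behind the reporter calls were not deposited.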 A plus sign joins genes that one reagent is predicted to hit. The record does not give: the amount of reagent, the time to read-out, the dose of the treatment.

DIP-epsilon (Dpr-interacting protein epsilon) [DRSC00932] | firefly reporter light, replicate 1: 29596; firefly reporter light, replicate 2: 9.66e5; Renilla control light, replicate 1: 14531; Renilla control light, replicate 2: 5.50e5; outcome: inactive
DIP-epsilon (Dpr-interacting protein epsilon) [DRSC02313] | firefly reporter light, replicate 1: 3463; firefly reporter light, replicate 2: 10551; Renilla control light, replicate 1: 272; Renilla control light, replicate 2: 3218; outcome: inactive
CG10384 [DRSC03933] | firefly reporter light, replicate 1: 20375; Renilla control light, replicate 1: 9393; outcome: inactive
CG10384 [DRSC04067] | firefly reporter light, replicate 1: 3144; firefly reporter light, replicate 2: 6369; Renilla control light, replicate 1: 496; Renilla control light, replicate 2: 2394; outcome: inactive
Polr1B (RNA polymerase I subunit B) [DRSC00780] | firefly reporter light, replicate 1: 7120; Renilla control light, replicate 1: 3564; outcome: inactive
CG1309 [DRSC08302] | firefly reporter light, replicate 1: 5299; Renilla control light, replicate 1: 3196; outcome: inactive
hb (hunchback) [DRSC16963] | firefly reporter light, replicate 1: 3609; Renilla control light, replicate 1: 1291; outcome: inactive
Spt5 [DRSC07556] | firefly reporter light, replicate 1: 5803; Renilla control light, replicate 1: 1792; outcome: inactive
CG11529 [DRSC09839] | firefly reporter light, replicate 1: 5712; Renilla control light, replicate 1: 2256; outcome: inactive
Ugt35A1 (UDP-glycosyltransferase family 35 member A1) [DRSC16892] | firefly reporter light, replicate 1: 5752; Renilla control light, replicate 1: 1873; outcome: inactive

The list goes on; the last 2 above are carried over.
CG11529 [DRSC09839] | firefly reporter light, replicate 1: 5712; Renilla control light, replicate 1: 2256; outcome: inactive
Ugt35A1 (UDP-glycosyltransferase family 35 member A1) [DRSC16892] | firefly reporter light, replicate 1: 5752; Renilla control light, replicate 1: 1873; outcome: inactive
Blm + CG14721 [DRSC14943] | firefly reporter light, replicate 1: 20216; Renilla control light, replicate 1: 4961; outcome: inactive
lncRNA:roX2 (long non-coding RNA on the X 2) [DRSC22237] | firefly reporter light, replicate 1: 9.05e5; firefly reporter light, replicate 2: 8.74e5; Renilla control light, replicate 1: 4.08e5; Renilla control light, replicate 2: 3.81e5; outcome: inactive
Klc (Kinesin light chain) [DRSC11203] | firefly reporter light, replicate 1: 4676; Renilla control light, replicate 1: 1709; outcome: inactive
CG13102 [DRSC02202] | firefly reporter light, replicate 1: 2583; firefly reporter light, replicate 2: 4224; Renilla control light, replicate 1: 945; Renilla control light, replicate 2: 2748; outcome: inactive
Obp99c (Odorant-binding protein 99c) [DRSC16262] | firefly reporter light, replicate 1: 6432; Renilla control light, replicate 1: 3112; outcome: inactive
Pdfr (Pigment-dispersing factor receptor) [DRSC18614] | firefly reporter light, replicate 1: 9633; Renilla control light, replicate 1: 12083; outcome: inactive
Pld3 (Phospholipase D family member 3) [DRSC03167] | firefly reporter light, replicate 1: 5994; Renilla control light, replicate 1: 2168; outcome: inactive
TfIIB (Transcription factor IIB) [DRSC03454] | firefly reporter light, replicate 1: 3110; firefly reporter light, replicate 2: 8533; Renilla control light, replicate 1: 694; Renilla control light, replicate 2: 1568; outcome: inactive
CG10802 [DRSC17762] | firefly reporter light, replicate 1: 3639; firefly reporter light, replicate 2: 8512; Renilla control light, replicate 1: 1765; Renilla control light, replicate 2: 3869; outcome: inactive
Kaz-m1 (Kazal-type protease inhibitor m1) [DRSC16990] | firefly reporter light, replicate 1: 20377; Renilla control light, replicate 1: 15488; outcome: inactive
CG3492 [DRSC04373] | firefly reporter light, replicate 1: 12023; Renilla control light, replicate 1: 2971; outcome: inactive
ssp (sunspot) [DRSC10252] | firefly reporter light, replicate 1: 8643; Renilla control light, replicate 1: 1378; outcome: inactive
VhaAC39-1 (Vacuolar H[+] ATPase AC39 subunit 1) [DRSC18242] | firefly reporter light, replicate 1: 3799; firefly reporter light, replicate 2: 9452; Renilla control light, replicate 1: 1744; Renilla control light, replicate 2: 3174; outcome: inactive
trr (trithorax-related) [DRSC18845] | firefly reporter light, replicate 1: 2224; firefly reporter light, replicate 2: 4756; Renilla control light, replicate 1: 567; Renilla control light, replicate 2: 1193; outcome: inactive
CG3702 [DRSC00628] | firefly reporter light, replicate 1: 11383; Renilla control light, replicate 1: 5443; outcome: inactive
CG30062 [DRSC21737] | firefly reporter light, replicate 1: 3.24e5; firefly reporter light, replicate 2: 4.22e5; Renilla control light, replicate 1: 85435; Renilla control light, replicate 2: 79934; outcome: inactive
CG42826 [DRSC10682] | firefly reporter light, replicate 1: 9027; Renilla control light, replicate 1: 3293; outcome: inactive
Tango1 (Transport and Golgi organization 1) [DRSC02127] | firefly reporter light, replicate 1: 5680; Renilla control light, replicate 1: 3685; outcome: inactive
CG14957 [DRSC08416] | firefly reporter light, replicate 1: 6437; Renilla control light, replicate 1: 2953; outcome: inactive
CG17784 [DRSC15268] | firefly reporter light, replicate 1: 18043; Renilla control light, replicate 1: 16134; outcome: inactive
Mmp2 (Matrix metalloproteinase 2) [DRSC06698] | firefly reporter light, replicate 1: 3696; firefly reporter light, replicate 2: 9568; Renilla control light, replicate 1: 1144; Renilla control light, replicate 2: 4477; outcome: inactive
Mmp2 (Matrix metalloproteinase 2) [DRSC22024] | firefly reporter light, replicate 1: 7.68e5; firefly reporter light, replicate 2: 7.61e5; Renilla control light, replicate 1: 3.44e5; Renilla control light, replicate 2: 3.92e5; outcome: inactive
